Measured values from US9199914B2, “Multiple substituted fluoromethanes as selective and bioactive isosteres” (MEH ASSOCIATES, INC., priority 2010, dated 2015).
Values after ≈ are worked out from the molar mass of the structure shown. Like-named read-outs stand apart in the source and are kept apart here.

Tested on: T. cruzi Tulahuen C2C4, containing the Lac Z gene
Experiment: In vitro sensitivity assay: T. cruzi (Lac Z / CPRG, in L-6 cells)
Format: cell-based
Conditions: Trypanosoma cruzi, L6

Structure (SMILES): O=C(Cn1ccnc1[N+](=O)[O-])NCc1ccccc1 [benznidazole, Benznidazole]
- IC50 (Tulahuen C4, amastigotes in L-6 cells, read-out: IC50 Values T. cruzi): 0.407 µg/mL (≈ 1.56 µM)
- IC50 (TULAHUEN, standard drug, protocol value, read-out: IC50): 0.35 µg/mL (≈ 1.34 µM)
